Data taken from patent publication EP1028948B1, “PHENYL-ALKYL-IMIDAZOLES AS H3 RECEPTOR ANTAGONISTS” (SCHERING CORPORATION, priority 1997, dated 1999).
Some of these results come from one statement about several compounds together.

Protein sequences, listed by entry. Tags and fused reporters are not part of them. Lines headed by an entry give the natural chain unless they say otherwise; changes in a name come on top.
UniProt Q9JI35: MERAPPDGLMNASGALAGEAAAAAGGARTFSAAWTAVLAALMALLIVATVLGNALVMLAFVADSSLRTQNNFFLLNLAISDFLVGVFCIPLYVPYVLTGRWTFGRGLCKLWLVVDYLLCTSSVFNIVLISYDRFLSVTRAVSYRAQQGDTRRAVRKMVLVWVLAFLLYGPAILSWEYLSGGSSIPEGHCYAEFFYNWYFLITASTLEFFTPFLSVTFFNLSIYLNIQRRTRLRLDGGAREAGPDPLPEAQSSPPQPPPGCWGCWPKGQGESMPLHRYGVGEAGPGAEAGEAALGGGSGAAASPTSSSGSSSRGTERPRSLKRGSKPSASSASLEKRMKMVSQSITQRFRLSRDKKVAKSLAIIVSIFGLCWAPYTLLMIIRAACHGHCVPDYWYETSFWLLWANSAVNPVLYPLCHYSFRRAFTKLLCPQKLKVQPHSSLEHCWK

Target: T1, H3 receptors (Cavia porcellus, UniProt Q9JI35)
T1 construct: The brain tissue was homogenized using a Polytron in a solution of 50 mM Tris, pH 7.5; from tissue; host or cells: guinea pig brain membranes
Assay: H3 Receptor Binding Assay
Conditions: guinea pig brain membranes; 3 nM [3H]R-α-methylhistamine or 3 nM [3H]Nα-methylhistamine; 30°C for 30 min
Method: The source of the H3 receptors in this experiment was guinea pig brain. The animals weighed 400-600 g. […] The final concentration of tissue in the homogenization buffer was 10% w/v. […] The membranes were frozen and stored at -70°C until needed.
Membranes were then added (400 µg of protein) to the reaction tubes. […] Bound ligand was separated from unbound ligand by filtration, and the amount of radioactive ligand bound to the membranes was quantitated by liquid scintillation spectrometry.

O=C(/C=C/c1ccc(Cc2c[nH]cn2)cc1)NCCc1ccc(Cl)cc1 [Compound 3]
Ki: 1 to 1000 nM
